Results on one molecule are retold here after patent US10221217 (University of Washington, dated 2019).

The assay has as its target T1, CD4-IgG2 (UniProt P01730 26-204).
T1 construct: Captured on SPR chip; not shown: IgG2 portion
As to the kind of experiment: SPR, CD4-IgG2 captured, construct as analyte. For orientation: Surface plasmon resonance follows binding to a sensor surface in real time, without labels.

B1: c1d1_v2 (other)
chain: DTITLPCRPAPPPHCSSNITGLILTRDGGNSNNESEIFRPGGGDMAGMPRCGGGAVSTQLLLNGSLAEEEVVCRSVNFTDNAKSICVQLNTSVEINCTGAGHCNISRAKWNNTLKQIASCLREQFGNNKTIIFKQSSGGDPEIVTHSFNCGGEFFYCDSTQLFNSTWFGTKHHHHHH
Consider B1, for which the binding result is recorded as “no binding (tested: 1 µM)”.
